Laboratory results from patent US20150285818A1, “Switchable Reporter Enzymes for Homogenous Antibody Detection” (TECHNISCHE UNIVERSITEIT EINDHOVEN, priority 2012, published 2015).
Some results were stated once for a whole list of compounds, not compound by compound.

Tested on: anti-HIV1-p17 antibody
Experiment: Reporter enzyme activity assay with nitrocefin and anti-HIV1-p17 antibody titration
Settings: 50 μM nitrocefin; saturating anti-HIV1-p17

B1: Abs3-1: Abs-3 variant with E104D in β-lactamase and E31A in BLIP; SEQ ID NO: 22 (protein)
chain: MSIQHFRVALIPFFAAFCLPVFAHHHHHHLVPRGSHPETLVKVKDAEDQLGARVGYIELDLNSGKILESFRPEERFPMMSTFKVLLCGAVLSRIDAGQEQLGRRIHYSQNDLVDYSPVTEKHLTDGMTVRELCSAAITMSDNTAANLLLTTIGGPKELTAFLHNMGDHVTRLDRWEPELNEAIPNDERDTTMPVAMATTLRKLLTGELLTLASRQQLIDWMEADKVAGPLLRSALPAGWFIADKSGAGERGSRGIIAALGPDGKPSRIVVIYTTGSQATMDERNRQIAEIGASLIKHWTSGGELDRWEKIRLRPGGSGGSGGSGGSGGSGGSGAEAAAKEAAAKEAAAKEAAAKEAAAKEAAAKAGSGGSGGSGGSGGSGGSGAEAAAKEAAAKEAAAKEAAAKEAAAKEAAAKAGSGGSGGSGGSGGSGGSGGELDRWEKIRLRPGGSHGAGVMTGAKFTQIQFGMTRQQVLDIAGAENCATGGSFGDSIHCRGHAAGDYYAYATFGFTSAAADAKVDSKSQEKLLAPSAPTLTLAKFNQVTVGMTRAQVLATVGQGSCTTWSEYYPAYPSTAGVTLSLSCFDVDGYSSTGFYRGSAHLWFTDGVLQGKRQWDLVGEFGGWSHPQFEK
increase in enzyme activity upon addition of target antibody: 5-6 fold

B2: Abs3-2: Abs-3 variant with E104D in β-lactamase and F142A in BLIP; SEQ ID NO: 37 (protein)
chain: MSIQHFRVALIPFFAAFCLPVFAHHHHHHLVPRGSHPETLVKVKDAEDQLGARVGYIELDLNSGKILESFRPEERFPMMSTFKVLLCGAVLSRIDAGQEQLGRRIHYSQNDLVDYSPVTEKHLTDGMTVRELCSAAITMSDNTAANLLLTTIGGPKELTAFLHNMGDHVTRLDRWEPELNEAIPNDERDTTMPVAMATTLRKLLTGELLTLASRQQLIDWMEADKVAGPLLRSALPAGWFIADKSGAGERGSRGIIAALGPDGKPSRIVVIYTTGSQATMDERNRQIAEIGASLIKHWTSGGELDRWEKIRLRPGGSGGSGGSGGSGGSGGSGAEAAAKEAAAKEAAAKEAAAKEAAAKEAAAKAGSGGSGGSGGSGGSGGSGAEAAAKEAAAKEAAAKEAAAKEAAAKEAAAKAGSGGSGGSGGSGGSGGSGGELDRWEKIRLRPGGSHGAGVMTGAKFTQIQFGMTRQQVLDIAGAENCETGGSFGDSIHCRGHAAGDYYAYATFGFTSAAADAKVDSKSQEKLLAPSAPTLTLAKFNQVTVGMTRAQVLATVGQGSCTTWSEYYPAYPSTAGVTLSLSCFDVDGYSSTGAYRGSAHLWFTDGVLQGKRQWDLVGEFGGWSHPQFEK
increase in enzyme activity upon addition of target antibody: 5-6 fold
